PubChem BioAssay AID1259405 | NCATS | 2018

Aim: 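Silenced genes that increase secreted GFP made by CHO cells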 (primary screen)
Cells: Chinese hamster CHO-K1 ovary cells with stable secreted eGFP expression
Reagents: single siRNA against mouse genes, 0.8 pmol siRNA per well (2 µl of 400 nM stock)
Duration: 3 days
Measured: 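Per-well intracellular GFP measured by laser scanning cytometry, plus viability from ATP luminescence, each relative to plate median of non-targeting control wells, in %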
Reading the numbers: GFP, % of control: higher = more GFP per well, higher productivity; viability (ATP), % of control: higher = more viable cells (more ATP)
Hit rule: 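a knock-down is called active if GFP reaches 120% or more of non-targeting control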
The deposit covers about 50,000 reagents; this is an unselected part. About 4,000 of all reagents (8%) were called active. 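Mouse siRNA library applied to hamster cells; one well for each siRNA.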 Unmarked entries are inactive. The numbers tell different reagents against one gene apart.

Gene	reagent	GFP, % of control	viability (ATP), % of control
Marchf7	1	38.2	46.8
Marchf7	2	64.6	67.4
Marchf7	3	87.4	103
Chrna2	1	57.7	62.7
Chrna2	2	57.7	54.8
Chrna2	3	66.8	63.6
Map3k1	1	69.4	73.6
Mfap4	1	68.3	117
Mfap4	2	62.4	65.7
Wrnip1	1	108	123
Wrnip1	2	105	68.9
Wrnip1	3	55.4	63.6
Lrriq4	1	94.9	83.5
Lrriq4	2	60	69.3
Lrriq4	3	41.8	62.6
Clasrp	1	76.6	91.7
Clasrp	2	77.8	67.3
Clasrp	3	57.8	52
Or4f60	1	103	89.5
Or4f60	2	107	76.6
Or4f60	3	65.3	78.9
Or6b9	1	56.3	47.4
Or6b9	2	70.7	71.1
Or6b9	3	66.1	77.8
Or52u1	1	78.1	76.1
Or52u1	2	53.6	63.3
Or52u1	3	82.7	62.9
Carmil3	1	66.4	57.1
Carmil3	2	79.3	85.2
Carmil3	3	140 (active)	129
Or10k2	1	92.5	58.7
Or10k2	2	71.2	80.5
Or10k2	3	66.3	60.6
Fkbp9	1	54.2	66.1
Fkbp9	2	151 (active)	94.9
Fkbp9	3	79.3	63.9
Reep3	1	159 (active)	137
Reep3	2	47.4	53.1
Reep3	3	49.6	76.7
Septin1	1	101	106
Septin1	2	64.1	77.4
Emc8	1	36.9	24.3
Emc8	2	23.9	29.2
Emc8	3	52.6	72.9
Shld2	1	109	69.2
Shld2	2	130 (active)	84.6
Shld2	3	106	82.6
Syne4	1	20.9	75.2
Syne4	2	112	117
Syne4	3	124 (active)	111
Trpc5	1	116	130
Trpc5	2	98.1	85.1
Trpc5	3	121 (active)	88.9
Nudt18	1	62.1	77.6
Nudt18	2	77.3	80.8
Nudt18	3	53.8	56.5
Agxt	1	115	91.2
Agxt	2	99.1	120
Agxt	3	103	108
Stk26	1	160 (active)	110
Stk26	2	70.5	86.8
Stk26	3	77.7	90.5
Stk26	4	108	81.1
Fasl	1	77	91.8
Fasl	2	56.4	65.5
Fasl	3	46.3	66.2
Pcdhgb4	1	87.7	75.2
Pcdhgb4	2	58.5	84.2
Pcdhgb4	3	67.3	35.9
A2m	1	96.5	115
A2m	2	78.2	67.4
Chst4	1	111	106
Chst4	2	54.9	122
Chst4	3	112	110
Lpar2	1	139 (active)	103
Lpar2	2	63.3	67.2
Lpar2	3	53.6	62.8
Serpina10	1	57.5	80.3
Serpina10	2	61.6	69.7
Serpina10	3	89.5	64.2
Erc1	1	106	66.8
Erc1	2	78.9	81
Erc1	3	59.2	53.7
Pcbd2	1	105	108
Pcbd2	2	65.3	72.6

4 neighbouring reagents already listed, for reference:
Gene	reagent	GFP, % of control	viability (ATP), % of control
Clasrp	2	77.8	67.3
Clasrp	3	57.8	52
Or4f60	1	103	89.5
Or4f60	2	107	76.6
